In article PMC8394784 (International Journal of Molecular Sciences, 2021):
HELM strings list residues between dots; [ac] is acetyl, [am] amide, other brackets name non-standard units.

Columns and labels:
[1] = general procedure: Fmoc solid-phase peptide synthesis; Rink amide resin; Oxyma pure / DIC; settings: whole synthesis
[2] = general procedure: Fmoc solid-phase peptide synthesis; 2-chlorotrityl resin preloaded with the 1,2-amino alcohol (K6-Lol); Rink amide resin (K6-NH2); preloaded 2-chlorotrityl; Oxyma pure / DIC; settings: whole synthesis, high resolution mass spectrometry, 1D NMR

In the case of “PEPTIDE1{[Oct].[Aib].G.L.[Aib].G.K.L.[Aib].G.I.L.[am]}$$$$V2.0”, the isolated yield [1] is reported as 91% and the “final HPLC purity” value [2] is reported as 98%.
